The whole screen tested about 360,000 compounds, of which about 7,500 (2.1%) were called active. The shares of active, inactive and inconclusive entries below differ from those in the screen. Calls follow the shape of the dose curve; as a rule, active = well fitted inhibition curve with a large enough effect; inconclusive = small, poorly fitted or top-dose-only effect, or effect the other way; inactive = flat fitted curve, though single readings scatter. A potency beside an inconclusive call is a rough fit, not a confirmed value.
Test: Nrf2 qHTS screen for inhibitors; also: nearly all actives have a fitted effect of over 60% in size
Settings: A549 ARE-Fluc reporter, luciferase luminescence, 18-24 h; series mostly up to 46 µM
How it was run: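 Nrf2 activity is the BugLite luminescence, read 15 min after reagent at room temperature, following CellTiter-Fluor cytotoxicity readout (30 min, 37C). Compound titrations were applied for 18-24 h to 5000 A549 ARE_Fluc cells/well in 5% FBS OPTI-MEM.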
Potency is read from the fitted curve at half-maximal effect.

Row | SMILES | Potency
1 | CCCCCCSc1ccc(-c2nc3ccc(C)cn3c2NCc2ccccc2)cc1OC | inconclusive: 18.4 µM [falling, single point]
2 | COc1ccc(C(=O)NC(=S)NNC(=O)CCc2ccccc2)cc1 | active: 7.31 µM
3 | Cc1cc(C)c2c(c1)-c1c(ssc1=S)C(C)(C)N2C(=O)CSc1nncn1C | inconclusive: 14.6 µM [falling, single point]
4 | COc1ccc(CC(=O)Nc2ccncc2Cl)cc1 | active: 5.17 µM
5 | Cc1cc(NC(=O)Nc2cccc(Cl)c2)n(-c2ccccn2)n1 | inconclusive: 29.1 µM [falling, single point]
6 | N#Cc1cc2c(nc1SC1CC(=O)N(c3ccccc3)C1=O)CCC2 (centres undefined) | inconclusive: 29.1 µM [activator, single point]
7 | CC1=C(C(=O)OCC2CCCCC2)C(c2ccc(O)cc2)NC(=O)N1 (centres undefined) | inconclusive: 29.1 µM [falling, single point]
8 | Cc1c(/C=N/NC(N)=O)c2ccccn2c1C(=O)c1ccc(F)cc1 | inconclusive: 3.26 µM [falling, partial curve]
9 | O=C(O)c1cccc(NC(=O)c2cn(-c3ccccc3)nc2-c2ccncc2)c1 | inconclusive: 4.11 µM [activator, single point]
10 | CCn1cc(S(=O)(=O)c2ccc(OC)cc2)c(=O)c2cc(F)c(N3CCC(C)CC3)cc21 | active: 16.4 µM
11 | O=C(Nc1ccccc1C(=O)O)/C(=C/c1ccc(Cl)cc1Cl)NC(=O)c1ccco1 | inactive
12 | CCN1C(=O)C(=O)N(CC(=O)c2cc(C)n(C3CC3)c2C)C1=O | inconclusive: 29.1 µM [activator, single point]
13 | Cc1noc(C)c1CSCC(=O)Nc1ccccc1N1CCCC1 | inconclusive: 8.2 µM [falling, partial curve, poor fit]
14 | CCCN(CCC)CCCNC(=O)C1CCC(CNS(=O)(=O)c2cccc3nsnc23)CC1 (centres undefined) | inconclusive: 2.59 µM [activator, full curve, poor fit]
15 | COc1ccc(CCNC(=S)N2CCN(S(=O)(=O)c3ccccc3F)CC2)cc1 | inactive
16 | Cc1ccc(CN(Cc2ccco2)C(=O)COc2c(C)cc(C)cc2C)cc1 | inconclusive: 16.4 µM [falling, partial curve]
17 | COc1ccc([C@H]2CC(=O)C=C(c3ccc(Cl)c(F)c3)C2)cc1 | inconclusive: 32.6 µM [falling, single point]
18 | Cc1cc([N+](=O)[O-])cc2c1-c1ncccc1C2=Nc1ccccc1 | inactive
19 | Oc1ccc(-c2nc3ccccn3c2Nc2ccc3c(c2)OCCO3)cc1 | inconclusive: 2.31 µM [activator, partial curve]
20 | CCN(CC)C(=O)C(Oc1ccc(S(=O)(=O)N2CCCC2)cc1[N+](=O)[O-])c1ccccc1 (centres undefined) | inconclusive: 32.6 µM [falling, single point]
21 | CCOC(=O)Nc1oc2ccccc2c(=O)c1CN1CCOCC1 | inactive
22 | O=C(CSc1nnc(-c2ccc(F)cc2)o1)N1CCCC1 | inconclusive: 9.2 µM [activator, partial curve, poor fit]
23 | Cc1ccc(CN2C(=O)N/C(=C\c3ccc(N4CCOCC4)cc3)C2=O)cc1 | inconclusive: 29.1 µM [falling, partial curve, poor fit]

From compound 11 as far as 12, as listed above:
Row | SMILES | Potency
11 | O=C(Nc1ccccc1C(=O)O)/C(=C/c1ccc(Cl)cc1Cl)NC(=O)c1ccco1 | inactive
12 | CCN1C(=O)C(=O)N(CC(=O)c2cc(C)n(C3CC3)c2C)C1=O | inconclusive: 29.1 µM [activator, single point]

(list continues)

Row | SMILES | Potency
24 | Cc1cc(Cl)ccc1Oc1nc(-c2ccc(F)cc2)ccc1C#N | inactive
25 | Cc1nnc(NC(=O)CS(=O)(=O)Cc2ccccc2)s1 | inconclusive: 13 µM [falling, partial curve, poor fit]
26 | Cc1ccc(C)c(N2CCN(C(=O)Cn3c(=O)c4cccn4c4ccc(F)cc43)CC2)c1 | inconclusive: 23.1 µM [activator, partial curve, poor fit]
27 | CCOC(=O)C1=C(O)c2ccccc2C(=O)/C1=C\c1ccc(C)cc1 | inconclusive: 29.1 µM [falling, single point]
28 | CSCc1cc(N(C)C)nc(SCc2ccc(Cl)cc2Cl)n1 | inconclusive: 29.1 µM [falling, single point]
29 | Cc1ccc(NC(=O)CSCn2nnc3c(=O)[nH]c(Cc4ccc(F)cc4)nc32)c(C)c1 | inactive
30 | O=C1CCC(C(=O)N2CCOCC2)CN1Cc1ccc(Cl)cc1 (centres undefined) | inactive
31 | Cc1ccc(CC(=O)N2CCN(c3ccc([N+](=O)[O-])cc3)CC2)cc1 | active: 20.6 µM
32 | CCCCC(=O)NC(c1ccccc1)c1ccc2cccnc2c1O (centres undefined) | inconclusive: 2.59 µM [falling, partial curve, poor fit]
33 | Cc1cccc(N2CCN(C(=O)c3ccc4c(c3)N(Cc3ccccc3F)C(=O)c3ccccc3S4=O)CC2C)c1 (centres undefined) | inconclusive: 14.6 µM [falling, partial curve]
34 | COc1cc2c(=O)c(C(=O)c3ccc(C)c(C)c3)cn(Cc3ccccc3)c2cc1OC | inactive
35 | COc1cc(NC(=O)CN2c3cccc4cccc(c34)S2(=O)=O)cc(OC)c1OC | active: 23.1 µM
36 | CN(CC(=O)c1c(N)n(C)c(=O)n(C)c1=O)c1ccccc1 | inconclusive: 4.61 µM [falling, partial curve, poor fit]
37 | CC1CCC(NC(=O)CN2C(=O)c3cccnc3Oc3ccc(Cl)cc32)CC1 (centres undefined) | inconclusive: 20.6 µM [activator, single point]
38 | N#Cc1c(NCCO)nc(NCc2ccccc2)c2c1CCN(Cc1ccccc1)C2 | inactive
39 | COc1ccc(Br)cc1CN(C)C(C)C(=O)Nc1cc([N+](=O)[O-])ccc1OC (centres undefined) | inconclusive: 18.4 µM [falling, single point]
40 | CCCCSc1nnc2n(-c3cccc(C)c3)c(=O)c3c4c(sc3n12)CCCC4 | inactive
41 | COc1ccc(-c2[nH]n(-c3ccc([N+](=O)[O-])cc3)c(=O)c2C=NCc2ccc(F)cc2)cc1 | inactive
42 | CC(C)(CO)CNC(=O)CCc1nnc(-c2ccc(-c3ccccc3)cc2)o1 | inconclusive: 0.731 µM [falling, full curve, poor fit]
43 | CCN(CC)S(=O)(=O)c1ccc(C(O)=C(C#N)c2nc3ccccc3n2C)cc1 | active: 23.1 µM
44 | CCCCCNc1nc2sc3c(c2c(=O)n1-c1cccc(Cl)c1)CCN(C)C3 | inconclusive: 23.1 µM [falling, single point]
45 | O=C(Nc1cccc(-c2cn3ccccc3n2)c1)C1CC1 | inactive
46 | Cc1ccccc1NC(=O)CN1C(=O)c2cccnc2Oc2ccc(Cl)cc21 | inconclusive: 11.6 µM [falling, partial curve, poor fit]

Looked up above:
Value of COc1cc2c(=O)c(C(=O)c3ccc(C)c(C)c3)cn(Cc3ccccc3)c2cc1OC under Potency: inactive
Value of O=C1CCC(C(=O)N2CCOCC2)CN1Cc1ccc(Cl)cc1 (centres undefined) under Potency: inactive
Value of Cc1ccc(CC(=O)N2CCN(c3ccc([N+](=O)[O-])cc3)CC2)cc1 under Potency: active: 20.6 µM

Next part.

Row | SMILES | Potency
47 | O=C(Cn1nnc(-c2ccc(F)cc2)n1)N1CCCCC1 | inactive
48 | O=C(Nc1ccc2c(c1)OCCO2)c1oc2ccccc2c1NC(=O)C1CC1 | inconclusive: 25.9 µM [falling, single point]
49 | O=C(COc1ccccc1Cl)Nc1nc2c(s1)CCCC2 | inconclusive: 2.31 µM [activator, full curve]
50 | COc1ccc(CNC(=O)C[C@H]2C[C@H](C(=O)N3CCOCC3)[C@@]3(CCC4CCCC4)c4[nH]c5ccc(Cl)cc5c4CCN3C2=O)cc1OC | active: 13 µM
51 | Cc1ccc(Sc2c([N+](=O)[O-])c(=O)n(C)c3ccccc23)cc1 | inactive
52 | Cc1cc(NC(=O)C23CCC(C)(C(=O)O2)C3(C)C)no1 (centres undefined) | inactive
53 | Clc1ccc(Nc2ccc(NCc3ccccc3)nn2)cc1 | inactive
54 | COc1cccc(CNC(=O)C2CCN(S(=O)(=O)c3ccc4c(c3)NC(=O)CO4)CC2)c1 | inconclusive: 32.6 µM [falling, partial curve, poor fit]
55 | O=C(Nc1ccccc1F)c1ccc([N+](=O)[O-])s1 | inconclusive: 25.9 µM [falling, partial curve, poor fit]
56 | CC(C)(C)n1ncc2c(=O)n(Cc3cccc(Cl)c3)cnc21 | inactive
57 | COc1ccc(N2CCN(C(=O)COC(=O)c3cccc(S(=O)(=O)Nc4ccccc4OC)c3)CC2)cc1 | inconclusive: 29.1 µM [falling, single point]
58 | Nc1nc(-c2ccccc2)nc(-c2ccccc2O)n1 | inconclusive: 2.59 µM [falling, partial curve, poor fit]
59 | O=C(CSc1nnc(SCc2ccc(Cl)cc2)s1)N/N=C/c1c[nH]c2ccccc12 | inconclusive: 29.1 µM [falling, single point]
60 | CC(C)(C)c1cc(C(=O)NNc2ccc(OC(F)(F)F)cc2)n(Cc2ccccc2)n1 | inconclusive: 29.1 µM [falling, single point]
61 | Cc1cc2c(s1)c(/C=N/O)c(C(=O)NCc1ccccc1F)n2C | inactive
62 | COCc1cc(Sc2ccc(Br)cc2)nc(-c2ccccc2)n1 | inconclusive: 29.1 µM [activator, single point]
63 | CCOCCCNC(=O)Cn1nc(C)n2c(cc3cc(C)ccc32)c1=O | inconclusive: 4.11 µM [falling, partial curve, poor fit]
64 | CCn1c(COc2ccc(C)cc2)nnc1SCC(=O)Nc1cc(OC)ccc1OC | inconclusive: 25.9 µM [falling, single point]
65 | Cc1coc2c1C(=O)C(=O)c1c-2ccc2c1CCCC2(C)C | inconclusive: 29.1 µM [falling, single point]
66 | C=C1Nc2ccccc2C(=O)N1c1ccc(C(=O)N2CCN(C(=O)c3ccco3)CC2)cc1 | inactive
67 | Cn1c2ccccc2c2nnc(SCCOc3ccccc3)nc21 | active: 5.17 µM
68 | Cc1ccc(C(=O)Cn2cnc3ccccc3c2=O)cc1C | inconclusive: 0.411 µM [activator, full curve, poor fit]
69 | COc1ccc(C(=O)Nc2ccc(O)c3ccccc23)cc1 | inconclusive: 0.146 µM [falling, full curve, poor fit]

Reference: PubChem BioAssay AID504444 (National Center for Advancing Translational Sciences (NCATS), 2011)
